Measurements reported in article PMC4735924.
Results are given in words; binding and its absence hold for the method and conditions named. Binding seen in cells or lysates may run through a third protein. Some binding calls cover weakened binding; strength is not graded here.

Amino acid sequences for entries named in this document (tags omitted). A change or cut given only in a name is not applied to a line headed by its entry. Chains listed by the source or under a name are the forms on record and can include a tag or linker.
UniProt Q07813: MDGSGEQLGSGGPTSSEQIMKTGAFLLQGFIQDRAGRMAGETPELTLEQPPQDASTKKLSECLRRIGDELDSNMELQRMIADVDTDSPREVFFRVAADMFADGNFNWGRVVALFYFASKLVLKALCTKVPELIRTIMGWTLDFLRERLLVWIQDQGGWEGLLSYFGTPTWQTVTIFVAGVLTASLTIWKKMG
HA-Bcl-xL mutant 2 (mt2), overexpressed in wt MEFs (Q07817-1, form named): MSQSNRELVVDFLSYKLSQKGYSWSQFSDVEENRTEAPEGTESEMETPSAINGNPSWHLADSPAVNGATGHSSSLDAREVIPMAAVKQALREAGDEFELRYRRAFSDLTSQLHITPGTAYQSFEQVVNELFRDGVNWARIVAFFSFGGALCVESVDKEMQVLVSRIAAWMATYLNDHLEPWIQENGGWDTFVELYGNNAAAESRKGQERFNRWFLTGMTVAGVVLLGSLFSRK
HA-Bcl-xL mutant 1 (mt1), overexpressed in wt MEFs (Q07817-1, form named): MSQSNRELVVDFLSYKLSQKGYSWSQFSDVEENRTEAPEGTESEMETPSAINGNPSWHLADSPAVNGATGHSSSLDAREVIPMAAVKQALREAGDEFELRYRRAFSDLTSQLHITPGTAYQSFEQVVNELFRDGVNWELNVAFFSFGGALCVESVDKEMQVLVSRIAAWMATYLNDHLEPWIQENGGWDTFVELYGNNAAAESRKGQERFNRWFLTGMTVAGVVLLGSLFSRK

Biological target: Bax, endogenous in wt MEFs (mouse (endogenous in MEFs)) (UniProt Q07813)
Test: co-IP; lysates of wt MEFs overexpressing control vector or HA-Bcl-xL constructs (NP-40 buffer: 100 mM NaCl, 100 mM Tris pH 8.2, 0.5% NP-40); 500 ug total protein with anti-Bax antibody overnight at 4 °C, protein A/G Sepharose 2 h; blot for HA and Bax

Row | binding | Substance
1 | binds | HA-Bcl-xL (wild type), overexpressed in wt MEFs (from UniProt Q07817-1 1-233)
2 | no binding | HA-Bcl-xL mutant 2 (mt2), overexpressed in wt MEFs (from UniProt Q07817-1 1-233)
3 | no binding | HA-Bcl-xL mutant 1 (mt1), overexpressed in wt MEFs (from UniProt Q07817-1 1-233)
